These are yes or no findings as the source states them, for the method shown. Binding seen in cells or lysates may run through a third protein. Some results given as binding are weak or reduced against the parent protein; the word gives no strength.
Molecular target: T1, Nuclear receptor subfamily 1 group D member 1 (Nr1d1) (human (endogenous in primary PASMCs)) (UniProt P20393)
T1 sequence: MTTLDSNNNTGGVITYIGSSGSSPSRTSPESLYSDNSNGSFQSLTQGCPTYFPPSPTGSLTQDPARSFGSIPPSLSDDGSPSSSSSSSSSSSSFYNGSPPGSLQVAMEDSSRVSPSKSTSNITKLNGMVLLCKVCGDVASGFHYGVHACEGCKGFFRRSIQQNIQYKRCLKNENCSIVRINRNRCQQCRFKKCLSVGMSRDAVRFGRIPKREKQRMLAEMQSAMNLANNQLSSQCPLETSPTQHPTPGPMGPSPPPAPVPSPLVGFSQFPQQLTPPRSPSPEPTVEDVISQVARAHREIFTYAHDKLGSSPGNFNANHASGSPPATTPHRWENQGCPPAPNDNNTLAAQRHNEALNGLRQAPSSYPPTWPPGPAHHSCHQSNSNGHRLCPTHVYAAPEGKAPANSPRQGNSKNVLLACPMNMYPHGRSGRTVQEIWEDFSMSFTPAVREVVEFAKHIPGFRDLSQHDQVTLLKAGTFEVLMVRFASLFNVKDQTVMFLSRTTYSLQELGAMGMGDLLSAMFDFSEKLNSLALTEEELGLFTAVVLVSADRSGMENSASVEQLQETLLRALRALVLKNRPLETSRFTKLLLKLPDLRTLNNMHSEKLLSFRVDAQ
Experiment: co-IP; Co-IP of Nr1d1 in primary human PASMCs; details in the Supplemental Methods (not shown)

Chains of the proteins cited; added tags and fusions are not shown. Lines headed by an entry give the natural chain unless they say otherwise; changes in a name come on top.
UniProt O75376: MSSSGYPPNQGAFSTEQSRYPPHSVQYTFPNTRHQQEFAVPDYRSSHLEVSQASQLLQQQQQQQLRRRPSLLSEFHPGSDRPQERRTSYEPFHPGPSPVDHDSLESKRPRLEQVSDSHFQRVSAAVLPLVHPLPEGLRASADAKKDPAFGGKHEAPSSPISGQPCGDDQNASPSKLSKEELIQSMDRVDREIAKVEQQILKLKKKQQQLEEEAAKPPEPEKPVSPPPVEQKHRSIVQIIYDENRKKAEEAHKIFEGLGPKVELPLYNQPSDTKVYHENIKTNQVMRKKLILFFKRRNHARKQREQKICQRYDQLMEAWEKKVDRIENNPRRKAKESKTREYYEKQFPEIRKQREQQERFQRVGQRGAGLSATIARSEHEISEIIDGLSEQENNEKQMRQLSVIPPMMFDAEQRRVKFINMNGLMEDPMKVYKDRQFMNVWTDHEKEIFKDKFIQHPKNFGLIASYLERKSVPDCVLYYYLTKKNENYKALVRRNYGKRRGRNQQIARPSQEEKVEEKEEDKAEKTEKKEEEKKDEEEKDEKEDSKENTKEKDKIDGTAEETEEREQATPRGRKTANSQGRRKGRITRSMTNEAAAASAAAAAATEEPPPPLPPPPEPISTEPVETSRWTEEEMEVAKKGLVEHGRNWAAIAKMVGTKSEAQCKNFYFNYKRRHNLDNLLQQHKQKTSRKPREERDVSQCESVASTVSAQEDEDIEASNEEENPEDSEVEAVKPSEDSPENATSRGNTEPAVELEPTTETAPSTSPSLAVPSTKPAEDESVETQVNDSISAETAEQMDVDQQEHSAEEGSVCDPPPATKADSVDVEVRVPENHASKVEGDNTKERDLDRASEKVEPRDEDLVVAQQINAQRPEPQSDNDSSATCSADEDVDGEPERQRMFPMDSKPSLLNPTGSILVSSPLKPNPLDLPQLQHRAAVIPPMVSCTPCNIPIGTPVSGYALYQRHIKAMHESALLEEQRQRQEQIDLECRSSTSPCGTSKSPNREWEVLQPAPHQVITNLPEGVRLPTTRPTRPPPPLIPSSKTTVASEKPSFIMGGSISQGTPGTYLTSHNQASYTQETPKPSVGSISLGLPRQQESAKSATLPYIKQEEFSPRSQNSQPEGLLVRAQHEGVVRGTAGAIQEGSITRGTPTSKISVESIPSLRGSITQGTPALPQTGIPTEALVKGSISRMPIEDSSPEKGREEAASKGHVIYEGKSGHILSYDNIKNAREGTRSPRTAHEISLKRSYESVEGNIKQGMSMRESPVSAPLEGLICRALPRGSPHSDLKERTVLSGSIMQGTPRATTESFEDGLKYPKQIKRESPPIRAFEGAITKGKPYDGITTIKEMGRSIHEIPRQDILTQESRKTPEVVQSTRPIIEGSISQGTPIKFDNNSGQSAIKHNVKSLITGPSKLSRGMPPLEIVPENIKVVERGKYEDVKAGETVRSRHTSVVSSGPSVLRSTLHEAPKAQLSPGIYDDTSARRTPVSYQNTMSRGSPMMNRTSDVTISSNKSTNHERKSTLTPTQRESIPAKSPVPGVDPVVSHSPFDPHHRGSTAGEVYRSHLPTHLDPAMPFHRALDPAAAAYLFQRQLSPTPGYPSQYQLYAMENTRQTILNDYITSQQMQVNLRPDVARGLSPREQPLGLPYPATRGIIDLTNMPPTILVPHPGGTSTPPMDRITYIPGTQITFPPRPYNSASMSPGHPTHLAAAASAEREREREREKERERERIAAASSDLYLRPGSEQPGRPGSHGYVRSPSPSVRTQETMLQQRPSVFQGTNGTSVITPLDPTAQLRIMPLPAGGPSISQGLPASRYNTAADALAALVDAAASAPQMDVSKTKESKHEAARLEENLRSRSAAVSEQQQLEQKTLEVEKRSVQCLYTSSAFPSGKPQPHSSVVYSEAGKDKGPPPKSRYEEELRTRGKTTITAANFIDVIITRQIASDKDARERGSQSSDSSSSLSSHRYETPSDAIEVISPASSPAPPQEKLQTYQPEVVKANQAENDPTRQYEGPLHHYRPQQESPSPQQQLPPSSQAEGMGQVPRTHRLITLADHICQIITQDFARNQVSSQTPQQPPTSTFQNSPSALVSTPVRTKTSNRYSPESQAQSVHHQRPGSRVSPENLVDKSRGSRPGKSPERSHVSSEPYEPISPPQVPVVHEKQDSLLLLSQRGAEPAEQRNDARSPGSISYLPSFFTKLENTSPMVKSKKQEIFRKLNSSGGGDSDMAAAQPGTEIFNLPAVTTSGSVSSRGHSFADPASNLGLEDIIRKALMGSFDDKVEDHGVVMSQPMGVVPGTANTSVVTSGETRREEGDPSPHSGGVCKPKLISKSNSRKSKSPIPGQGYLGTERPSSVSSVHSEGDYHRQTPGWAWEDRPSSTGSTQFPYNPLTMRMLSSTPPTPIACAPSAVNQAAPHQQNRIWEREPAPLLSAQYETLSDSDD

Substance: NCoR1-HDAC3 complex (from UniProt O75376 1-2440; O15379 1-428)
- binding: binds

— article PMC11522549
